According to paper doi:10.1101/2021.04.14.439766:
These are yes or no findings as the source states them, for the method shown. Binding seen in cells or lysates may run through a third protein. Some binding calls cover weakened binding; strength is not graded here. For some assays here: Tags and fused reporters may be left off the sequences shown.

Sequences of proteins named here, by UniProt entry; tags and fusion partners are left off.
UniProt P68104: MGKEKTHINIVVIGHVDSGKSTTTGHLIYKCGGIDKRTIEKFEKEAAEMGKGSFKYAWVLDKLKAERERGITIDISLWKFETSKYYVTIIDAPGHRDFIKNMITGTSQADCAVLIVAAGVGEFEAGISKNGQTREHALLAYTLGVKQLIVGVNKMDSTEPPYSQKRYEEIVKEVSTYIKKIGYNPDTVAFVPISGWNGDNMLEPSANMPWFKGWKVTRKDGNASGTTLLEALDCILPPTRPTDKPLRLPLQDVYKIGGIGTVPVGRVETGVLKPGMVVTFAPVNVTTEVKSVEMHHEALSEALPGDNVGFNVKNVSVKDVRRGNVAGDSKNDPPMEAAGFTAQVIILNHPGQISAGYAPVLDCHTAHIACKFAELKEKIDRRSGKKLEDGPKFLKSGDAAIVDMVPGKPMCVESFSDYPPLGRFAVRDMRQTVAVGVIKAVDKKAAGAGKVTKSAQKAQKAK

What was measured:
[1] = molecular target: T1, DEP domain-containing 1 (DEPDC1) (human (endogenous in osteosarcoma cells)) (UniProt Q5TB30); experiment: co-IP
T1 sequence: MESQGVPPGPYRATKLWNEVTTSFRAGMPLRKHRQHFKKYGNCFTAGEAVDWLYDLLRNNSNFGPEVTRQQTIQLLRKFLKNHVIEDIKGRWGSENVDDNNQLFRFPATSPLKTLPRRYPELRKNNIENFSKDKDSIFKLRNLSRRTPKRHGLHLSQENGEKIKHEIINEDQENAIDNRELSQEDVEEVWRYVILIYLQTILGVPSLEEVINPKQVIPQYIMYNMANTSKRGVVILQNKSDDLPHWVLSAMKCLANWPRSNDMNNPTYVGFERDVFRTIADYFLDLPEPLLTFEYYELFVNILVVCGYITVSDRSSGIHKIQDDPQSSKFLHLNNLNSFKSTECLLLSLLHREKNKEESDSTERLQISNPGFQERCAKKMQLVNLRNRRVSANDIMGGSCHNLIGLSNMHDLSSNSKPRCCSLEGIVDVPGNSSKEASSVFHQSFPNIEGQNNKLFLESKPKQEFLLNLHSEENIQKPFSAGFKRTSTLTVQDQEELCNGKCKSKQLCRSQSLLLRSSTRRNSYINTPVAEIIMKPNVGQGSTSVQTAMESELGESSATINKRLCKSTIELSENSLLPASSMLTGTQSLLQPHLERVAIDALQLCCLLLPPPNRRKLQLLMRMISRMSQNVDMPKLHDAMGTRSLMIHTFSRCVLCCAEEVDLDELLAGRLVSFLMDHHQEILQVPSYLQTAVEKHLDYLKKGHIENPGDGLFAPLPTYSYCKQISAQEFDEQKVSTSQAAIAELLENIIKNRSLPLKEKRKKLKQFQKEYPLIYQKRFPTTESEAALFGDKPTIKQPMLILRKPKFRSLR

His-tagged-EEF1A1 = His-tagged-EEF1A1 (UniProt P68104); experiment: co-IP

Row | Molecule | binding [1] | binding (His-tagged-EEF1A1)
1 | Elongation Factor 1-alpha 1 (EEF1A1) (from UniProt P68104 1-462) | binds | –
2 | FLAG-tagged DEPDC1 fragment 15–106 (domain or fragment, UniProt Q5TB30-2 15-106) KLWNEVTTSFRAGMPLRKHRQHFKKYGNCFTAGEAVDWLYDLLRNNSNFGPEVTRQQTIQLLRKFLKNHVIEDIKGRWGSENVDDNNQLFRF | – | binds
3 | FLAG-tagged DEPDC1 fragment 107–180 (domain or fragment, UniProt Q5TB30-2 107-180) PATSPLKTLPRRYPELRKNNIENFSKDKDSIFKLRNLSRRTPKRHGLHLSQENGEKIKHEIINEDQENAIDNRE | – | binds
4 | FLAG-tagged DEPDC1 fragment 407–527 (domain or fragment, UniProt Q5TB30-2 407-527) TAVEKHLDYLKKGHIENPGDGLFAPLPTYSYCKQISAQEFDEQKVSTSQAAIAELLENIIKNRSLPLKEKRKKLKQFQKEYPLIYQKRFPTTESEAALFGDKPTIKQPMLILRKPKFRSLR | – | binds
5 | FLAG-tagged DEPDC1 fragment 181–406 (domain or fragment, UniProt Q5TB30-2 181-406) LSQEDVEEVWRYVILIYLQTILGVPSLEEVINPKQVIPQYIMYNMANTSKRGVVILQNKSDDLPHWVLSAMKCLANWPRSNDMNNPTYVGFERDVFRTIADYFLDLPEPLLTFEYYELFVNILGLLQPHLERVAIDALQLCCLLLPPPNRRKLQLLMRMISRMSQNVDMPKLHDAMGTRSLMIHTFSRCVLCCAEEVDLDELLAGRLVSFLMDHHQEILQVPSYLQ | – | no binding
